Drawing on publication PMC11387718, this text covers binding for 6 molecules.

Sequences of proteins named here, by UniProt entry; tags and fusion partners are left off. Residues count along the entry.
UniProt Q922H1: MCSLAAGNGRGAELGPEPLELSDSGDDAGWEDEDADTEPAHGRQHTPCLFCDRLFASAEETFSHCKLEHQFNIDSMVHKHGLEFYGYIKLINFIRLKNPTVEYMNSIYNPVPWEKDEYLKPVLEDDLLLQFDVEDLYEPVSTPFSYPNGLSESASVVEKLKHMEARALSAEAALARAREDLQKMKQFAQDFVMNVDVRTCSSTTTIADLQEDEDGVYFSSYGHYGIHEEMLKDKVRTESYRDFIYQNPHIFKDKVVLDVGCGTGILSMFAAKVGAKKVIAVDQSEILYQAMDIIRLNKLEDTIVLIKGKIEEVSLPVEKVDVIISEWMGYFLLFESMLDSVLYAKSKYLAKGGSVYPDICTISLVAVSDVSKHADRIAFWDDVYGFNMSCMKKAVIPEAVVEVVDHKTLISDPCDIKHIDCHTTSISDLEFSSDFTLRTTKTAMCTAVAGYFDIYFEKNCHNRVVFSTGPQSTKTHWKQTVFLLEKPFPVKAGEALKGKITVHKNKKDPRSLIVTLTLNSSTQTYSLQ
UniProt P20029, residues 20-655: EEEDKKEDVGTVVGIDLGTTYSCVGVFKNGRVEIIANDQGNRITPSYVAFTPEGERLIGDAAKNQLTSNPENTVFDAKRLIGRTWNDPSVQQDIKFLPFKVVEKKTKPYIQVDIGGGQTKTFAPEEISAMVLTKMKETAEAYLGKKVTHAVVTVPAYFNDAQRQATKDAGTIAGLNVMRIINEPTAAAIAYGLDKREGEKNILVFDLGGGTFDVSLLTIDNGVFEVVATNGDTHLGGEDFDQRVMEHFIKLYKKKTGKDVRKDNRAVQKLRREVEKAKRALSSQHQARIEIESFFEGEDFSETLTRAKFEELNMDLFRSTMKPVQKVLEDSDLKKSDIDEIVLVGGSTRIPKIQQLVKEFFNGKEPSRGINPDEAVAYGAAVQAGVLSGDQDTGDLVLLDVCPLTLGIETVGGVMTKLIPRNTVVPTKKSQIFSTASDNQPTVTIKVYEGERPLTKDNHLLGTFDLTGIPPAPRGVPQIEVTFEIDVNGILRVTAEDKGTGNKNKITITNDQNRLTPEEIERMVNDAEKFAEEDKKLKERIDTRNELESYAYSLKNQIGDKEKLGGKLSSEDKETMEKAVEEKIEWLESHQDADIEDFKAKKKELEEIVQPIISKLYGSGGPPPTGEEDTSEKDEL
UniProt P09103, residues 20-509: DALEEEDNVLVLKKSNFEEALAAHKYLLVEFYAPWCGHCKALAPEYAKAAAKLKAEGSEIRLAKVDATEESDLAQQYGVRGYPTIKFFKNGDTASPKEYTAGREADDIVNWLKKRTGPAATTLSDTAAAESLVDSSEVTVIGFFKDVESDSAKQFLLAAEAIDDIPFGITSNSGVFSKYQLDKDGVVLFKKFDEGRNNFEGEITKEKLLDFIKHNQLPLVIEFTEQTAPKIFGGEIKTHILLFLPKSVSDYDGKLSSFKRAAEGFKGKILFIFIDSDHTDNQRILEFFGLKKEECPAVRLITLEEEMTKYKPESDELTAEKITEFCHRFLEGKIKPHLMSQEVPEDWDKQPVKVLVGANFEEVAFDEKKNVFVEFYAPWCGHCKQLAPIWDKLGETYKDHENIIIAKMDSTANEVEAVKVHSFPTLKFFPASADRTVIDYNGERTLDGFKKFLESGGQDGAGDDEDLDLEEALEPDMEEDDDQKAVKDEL
UniProt P27773, residues 25-505: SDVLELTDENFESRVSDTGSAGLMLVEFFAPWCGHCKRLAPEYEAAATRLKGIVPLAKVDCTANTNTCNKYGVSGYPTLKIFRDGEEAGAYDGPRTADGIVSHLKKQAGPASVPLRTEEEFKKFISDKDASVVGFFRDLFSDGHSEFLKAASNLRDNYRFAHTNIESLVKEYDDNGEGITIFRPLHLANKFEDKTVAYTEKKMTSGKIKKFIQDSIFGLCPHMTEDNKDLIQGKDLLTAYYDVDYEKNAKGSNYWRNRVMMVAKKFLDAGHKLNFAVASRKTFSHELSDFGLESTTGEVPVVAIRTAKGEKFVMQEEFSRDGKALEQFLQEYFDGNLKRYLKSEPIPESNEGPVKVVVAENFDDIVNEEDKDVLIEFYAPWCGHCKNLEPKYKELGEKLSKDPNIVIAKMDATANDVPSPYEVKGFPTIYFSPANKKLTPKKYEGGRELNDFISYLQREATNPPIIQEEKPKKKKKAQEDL

B1: CCT8, mouse, in Hepa1-6 cells (protein, UniProt P42932 1-548)
chain: MALHVPKAPGFAQMLKDGAKHFSGLEEAVYRNIQACKELAQTTRTAYGPNGMNKMVINRLEKLFVTNDAATILRELEVQHPAAKMIVMASHMQEQEVGDGTNFVLVFAGALLELAEELLRIGLSVSEVISGYEIACKKAHEILPELVCCSAKNLRDVDEVSSLLRTSIMSKQYGSETFLAKLIAQACVSIFPDSGNFNVDNIRVCKILGSGIYSSSVLHGMVFKKETEGDVTSVKDAKIAVYSCPFDGMITETKGTVLIKTAEELMNFSKGEENLMDAQVKAIAGTGANVIVTGGKVADIALHYANKYNIMLVRLNSKWDLRRLCKTVGATALPKLTPPVQEEMGHCDSVYLSEVGDTQVVVFKHEKEDGAISTIVLRGSTDNLMDDIERAVDDGVNTFKVLTRDKRLVPGGGATEIELAKQITSYGETCPGLEQYAIKKFAEAFEAIPRALAENSGVKANEVISKLYSVHQEGNKNVGLDIEAEVPAVKDMLEASILDTYLGKYWAIKLATNAAVTVLRVDQIIMAKPAGGPKPPSGKKDWDDDQND
B2: RIG-I, mouse, in Hepa1-6 cells (protein, UniProt Q6Q899 1-926)
chain: MTAEQRQNLQAFRDYIKKILDPTYILSYMSSWLEDEEVQYIQAEKNNKGPMEAASLFLQYLLKLQSEGWFQAFLDALYHAGYCGLCEAIESWDFQKIEKLEEHRLLLRRLEPEFKATVDPNDILSELSECLINQECEEIRQIRDTKGRMAGAEKMAECLIRSDKENWPKVLQLALEKDNSKFSELWIVDKGFKRAESKADEDDGAEASSIQIFIQEEPECQNLSQNPGPPSEASSNNLHSPLKPRNYQLELALPAKKGKNTIICAPTGCGKTFVSLLICEHHLKKFPCGQKGKVVFFANQIPVYEQQATVFSRYFERLGYNIASISGATSDSVSVQHIIEDNDIIILTPQILVNNLNNGAIPSLSVFTLMIFDECHNTSKNHPYNQIMFRYLDHKLGESRDPLPQVVGLTASVGVGDAKTAEEAMQHICKLCAALDASVIATVRDNVAELEQVVYKPQKISRKVASRTSNTFKCIISQLMKETEKLAKDVSEELGKLFQIQNREFGTQKYEQWIVGVHKACSVFQMADKEEESRVCKALFLYTSHLRKYNDALIISEDAQMTDALNYLKAFFHDVREAAFDETERELTRRFEEKLEELEKVSRDPSNENPKLRDLYLVLQEEYHLKPETKTILFVKTRALVDALKKWIEENPALSFLKPGILTGRGRTNRATGMTLPAQKCVLEAFRASGDNNILIATSVADEGIDIAECNLVILYEYVGNVIKMIQTRGRGRARDSKCFLLTSSADVIEKEKANMIKEKIMNESILRLQTWDEMKFGKTVHRIQVNEKLLRDSQHKPQPVPDKENKKLLCGKCKNFACYTADIRVVETSHYTVLGDAFKERFVCKPHPKPKIYDNFEKKAKIFCAKQNCSHDWGIFVRYKTFEIPVIKIESFVVEDIVSGVQNRHSKWKDFHFERIQFDPAEMSV
B3: MDA5, mouse, in Hepa1-6 cells (protein, UniProt Q8R5F7 1-1025)
chain: MSIVCSAEDSFRNLILFFRPRLKMYIQVEPVLDHLIFLSAETKEQILKKINTCGNTSAAELLLSTLEQGQWPLGWTQMFVEALEHSGNPLAARYVKPTLTDLPSPSSETAHDECLHLLTLLQPTLVDKLLINDVLDTCFEKGLLTVEDRNRISAAGNSGNESGVRELLRRIVQKENWFSTFLDVLRQTGNDALFQELTGGGCPEDNTDLANSSHRDGPAANECLLPAVDESSLETEAWNVDDILPEASCTDSSVTTESDTSLAEGSVSCFDESLGHNSNMGRDSGTMGSDSDESVIQTKRVSPEPELQLRPYQMEVAQPALDGKNIIICLPTGSGKTRVAVYITKDHLDKKKQASESGKVIVLVNKVMLAEQLFRKEFNPYLKKWYRIIGLSGDTQLKISFPEVVKSYDVIISTAQILENSLLNLESGDDDGVQLSDFSLIIIDECHHTNKEAVYNNIMRRYLKQKLRNNDLKKQNKPAIPLPQILGLTASPGVGAAKKQSEAEKHILNICANLDAFTIKTVKENLGQLKHQIKEPCKKFVIADDTRENPFKEKLLEIMASIQTYCQKSPMSDFGTQHYEQWAIQMEKKAAKDGNRKDRVCAEHLRKYNEALQINDTIRMIDAYSHLETFYTDEKEKKFAVLNDSDKSDDEASSCNDQLKGDVKKSLKLDETDEFLMNLFFDNKKMLKKLAENPKYENEKLIKLRNTILEQFTRSEESSRGIIFTKTRQSTYALSQWIMENAKFAEVGVKAHHLIGAGHSSEVKPMTQTEQKEVISKFRTGEINLLIATTVAEEGLDIKECNIVIRYGLVTNEIAMVQARGRARADESTYVLVTSSGSGVTEREIVNDFREKMMYKAINRVQNMKPEEYAHKILELQVQSILEKKMKVKRSIAKQYNDNPSLITLLCKNCSMLVCSGENIHVIEKMHHVNMTPEFKGLYIVRENKALQKKFADYQTNGEIICKCGQAWGTMMVHKGLDLPCLKIRNFVVNFKNNSPKKQYKKWVELPIRFPDLDYSEYCLYSDED

Results are given in words; binding and its absence hold for the method and conditions named. Binding seen in cells or lysates may run through a third protein. Here binding means that the protein was enriched with, or labelled near, the bait; the list need not be complete. A no says only that the protein was not detected with the bait.

For this experiment, the target named is protein arginine methyltransferase 3 (PRMT3), mouse, in Hepa1-6 cells (mouse (endogenous in Hepa1-6)) (UniProt Q922H1). As to the kind of experiment: affinity purification with mass spectrometry; IP of PRMT3 from Hepa1-6 cell lysate (IP lysis buffer, antibody overnight at 4 °C, protein A/G agarose beads), LC-MS of the eluted peptides.
Turning to “HSPA5, mouse, in Hepa1-6 cells (from UniProt P20029 20-655)”, the binding result is “binds”. For “P4HB, mouse, in Hepa1-6 cells (from UniProt P09103 20-509)”, the binding result is recorded as “binds”. The same measure for “PDIA3, mouse, in Hepa1-6 cells (from UniProt P27773 25-505)”: “binds”; for B1: “binds”. Turning to B2, the binding result is “no binding”.

As to B3, the binding result is given as “no binding”.
